Assay results: PMC4782060
Where a chain is given by its changes, count along the chain named. No constants are given. Whether binding was seen depends on the method and setting. For some of these results: Binding seen in cells or lysates may run through a third protein. Some binding calls cover weakened binding; strength is not graded here. For some of these results: Where a sequence is shown, tags or fusion partners need not be part of it.

Chains of the proteins cited; added tags and fusions are not shown. Residues count along the entry.
UniProt P08670, residues 102-138: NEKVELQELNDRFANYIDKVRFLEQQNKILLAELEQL

B1: human periplakin residues 1588-1756 with a C-terminal HA tag (domain or fragment, UniProt O60437 1588-1756)
chain: MAATETRDLRNMTVADSGTNHDSRLWSLERELDDLKRLSKDKDLEIDELQKRLGSVAVKREQRENHLRRSIVVIHPDTGRELSPEEAHRAGLIDWNMFVKLRSQECDWEEISVKGPNGESSVIHDRKSGKKFSIEEALQSGRLTPAQYDRYVNKDMSIQELAVLVSGQK
B2: wild-type human envoplakin plakin repeat domain (PRD), residues Asp1822-Ala2014 (domain or fragment, UniProt Q92817 1822-2014)
chain: DDSFPIAGIYDTTTDNKCSIKTAVAKNMLDPITGQKLLEAQAATGGIVDLLSRERYSVHKAMERGLIENTSTQRLLNAQKAFTGIEDPVTKKRLSVGEAVQKGWMPRESVLPHLQVQHLTGGLIDPKRTGRIPIQQALLSGMISEELAQLLQDESSYEKDLTDPISKERLSYKEAMGRCRKDPLSGLLLLPAA

Key:
[1] = biological target: T1, human envoplakin residues 1542-2014 with a C-terminal FLAG tag, R1914E (human) (UniProt Q92817); assay: co-IP; called pull-down assay by the paper: HeLa cells co-transfected with FLAG-tagged envoplakin and HA-tagged periplakin constructs, lysed 48 h later in PBS with 1% Triton X-100; Flag-agarose beads, 45 min at 4 °C; blots with anti-Flag and anti-HA
T1 sequence: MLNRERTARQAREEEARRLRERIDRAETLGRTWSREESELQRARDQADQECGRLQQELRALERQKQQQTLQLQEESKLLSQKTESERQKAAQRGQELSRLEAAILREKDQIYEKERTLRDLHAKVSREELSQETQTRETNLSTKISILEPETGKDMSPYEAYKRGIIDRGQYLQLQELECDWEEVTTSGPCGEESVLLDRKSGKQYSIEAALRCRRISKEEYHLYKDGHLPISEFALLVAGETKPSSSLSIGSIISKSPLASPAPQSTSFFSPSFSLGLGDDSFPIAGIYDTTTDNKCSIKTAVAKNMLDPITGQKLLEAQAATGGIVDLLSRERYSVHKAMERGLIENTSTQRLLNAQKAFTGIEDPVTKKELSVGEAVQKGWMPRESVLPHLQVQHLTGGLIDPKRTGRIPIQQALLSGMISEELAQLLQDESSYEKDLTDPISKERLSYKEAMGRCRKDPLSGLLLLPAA

[2] = biological target: T2, human envoplakin residues 1542-2014 with a C-terminal FLAG tag, K1847E (human) (UniProt Q92817); assay: as above
T2 sequence: T1 sequence with K306E, E373R

[3] = biological target: T3, human envoplakin residues 1542-2014 with a C-terminal FLAG tag, K2002E (human) (UniProt Q92817); assay: as above
T3 sequence: T1 sequence with E373R, K461E

[4] = biological target: T4, human envoplakin residues 1542-2014 with a C-terminal FLAG tag, K1901E (human) (UniProt Q92817); assay: as above
T4 sequence: T1 sequence with K360E, E373R

[5] = biological target: wild-type human envoplakin plakin repeat domain (PRD), residues Asp1822-Ala2014 (human) (UniProt Q92817); assay: SAXS; envoplakin PRD alone; 1-5.5 mg ml^-1 (5.5 mg ml^-1 data set analysed) in 100 mM NaCl, 20 mM sodium phosphate, pH 7.2, room temperature; both purified
[6] = biological target: wild-type human envoplakin plakin repeat domain (PRD), residues Asp1822-Ala2014 (human) (UniProt Q92817); assay: condition: 21, 44 and 65 μM (equilibrium); 46 μM (velocity); AUC; envoplakin PRD alone; sedimentation equilibrium at 21, 44 and 65 μM and sedimentation velocity at 46 μM; 100 mM NaCl, 20 mM sodium phosphate, pH 7.4, 20 °C; both purified
[7] = biological target: peptide consisting of vimentin residues 102-138 (human) (UniProt P08670); assay: SPR; envoplakin PRD and the vimentin 102-138 peptide, in the presence of salt; both purified

binding [1]	binding [2]	binding [3]	binding [4]	binding [5]	binding [6]	binding [7]	Binder
binds	binds	binds	binds	–	–	–	B1
–	–	–	–	no binding (tested: 5.5 mg ml^-1)	no binding	no binding	B2
